Measured values reported in PubChem BioAssay AID1508600 (Functional Genomics Laboratory (NCATS/FGL), 2020).
In all, about 53,000 sequences went through this assay and about 3,700 (7%) were called active.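 The calls were made as follows: active = gene knockdowns whose robust z-score for IL-1 alpha signal is at least 2 or at most -2, so actives lie on both sides; inactive = the rest.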 Some of the results follow.

test: Components of the Cytosolic LPS Sensing Pathway: Gene Identification via Genome-wide siRNA Screen; conditions: RAW264.7 macrophages, IL-1a HTRF, actives lie on both sides, screened at 100 nM (by protocol), cells primed 5 h with Pam3CSK4 first;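 also: robust z of the log signal after scaling to non-targeting control siRNA wells of the plate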
How it was run: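 RAW264.7 mouse macrophages reverse-transfected with single siRNAs (100 nM final) for 48h, primed with Pam3CSK4 for 5 hours, then transfected with LipidA for 24 hour. Supernatant IL-1a read by HTRF; values normalized to negative-control median, log-transformed robust z-scores.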

Sequence | z-score
GCGGGUGAAAUACACCAAGTT against Trim28 | active: -2.2
GGAAUAGUCAACUUGGUAUTT against Ndc80 | inactive: 0.153
GGACCUCUGUUUCCAGGAGTT against G6pc3 | inactive: 0.54
GCAGACAAUAUCUCUGAAUTT against Olfr459 | inactive: -0.942
GGUGGAUUUUAAGUUUCCUTT against Aurkc | active: 3.43
CGAUUCCCUGGUUAUGACUTT against Rpl5 | inactive: -0.669
GGGAUUUUACUCAGGAUUATT against Sycp2 | inactive: 0.781
GGAUCUGAUAAACUCAUUCTT against Lad1 | inactive: -1.22
GGCAUAGCUCAGUGAUAGCTT against Tmem19 | inactive: 0.117
GGAUGUUGUAGAUGCUUUGTT against Acot1 | inactive: 0.682
CGAAUAAACUUGAUUUGCCTT against Ier3 | inactive: 0.238
GGAACGAGUUUUGAAAAAATT against Creb3l3 | inactive: 0.073
GGGAAAUUUCUCACUCUCUTT against Olfr1362 | inactive: -0.224
UACUACAACCGCACAGUGATT against Tmc6 | inactive: 0.522
GGAAUCCAUGUUAGUAGCCTT against Lrsam1 | inactive: 0.312
GGUGGUCUACAUAGCUUGUTT against Kdelr1 | inactive: 1
GGGCUUCUGUGCAUUGCAUTT against Asb3 | inactive: -0.0101
GCGAUAUAAUAUGGAAAGATT against Plcg2 | inactive: 1.07
GCAAGUGAAGAAACAGCACTT against Stx1b | inactive: -0.581
CGUAGCAAUCUUGGUUGCUTT against Hoxa3 | inactive: -1.86
GGUGGUUAUGAAACUAUCUTT against Kdm5c | inactive: -0.637
GGUCCUACUUGUUCAUUGATT against Il1rl1 | inactive: -0.802

As entered above.
GGUGGUUAUGAAACUAUCUTT against Kdm5c – z-score: inactive: -0.637
GGGCUUCUGUGCAUUGCAUTT against Asb3 – z-score: inactive: -0.0101
GGACCUCUGUUUCCAGGAGTT against G6pc3 – z-score: inactive: 0.54
GGUGGUCUACAUAGCUUGUTT against Kdelr1 – z-score: inactive: 1
GGAACGAGUUUUGAAAAAATT against Creb3l3 – z-score: inactive: 0.073

Later entries

Sequence | z-score
GCCUGAUUUUACUUAAAAGTT against H2aj | inactive: -1.26
GGCUGUCACGGAAAUGUAGTT against Rrp7a | inactive: -0.315
GGAGUGAAGGUUCAGAUCCTT against Asic2 | active: 3.1
GCGAUUCUCCGUGAUGUACTT against Mettl7a1 | inactive: -1.82
GGACAUCCGACACUUUAACTT against Abcb9 | inactive: 0.373
GGACUUUGAGGAGAAGAAGTT against Maml1 | inactive: 0.957
GGAGAAAAAGCAACUUCAATT against Epsti1 | inactive: 0.569
GGAAAACCAGGUGAACCUCTT against Gch1 | inactive: -0.505
GGUAAAUUCAACUGGAAGGTT against Lyar | inactive: 0.194
CCCGUAGGUAAUACAAAUATT against Foxd4 | inactive: 0.721
CGAGCUUAUGCUGAAACCATT against 3830417A13Rik | active: -2.45
GGACUGAGAAUCUUCUGUATT against Kctd4 | inactive: -0.297
GGAAAACCGGAACAACCAGTT against Kpna2 | inactive: 0.957
GGGUACAAAGCAACAUUGGTT against Disp1 | active: 4.2
GGUACAGAACAGGAUGGUATT against Zbtb33 | inactive: -0.466
GGUGUUCUAAUUCUGAGGCTT against Tcstv1 | inactive: -1.48
GGAAAAGAAAUUUGCUGAUTT against Ugt3a2 | inactive: -0.821
GCAGCCUUUGUACCAUUAUTT against Samt2 | inactive: -1.45
GGAGGUACUUACAAUUUUGTT against Kpna3 | inactive: 0.193
CGUACAUCUGUCCUACAUGTT against Tmem216 | inactive: -0.259
GGAUAGCAAUUACCUGCUATT against Strap | inactive: -0.276
GGAAGAAUCUUUCUGAUGGTT against Pon3 | inactive: -1.7

Sequence | z-score
GCUUAGUGGUGUCAUCUCCTT against Stx1a | inactive: 1.4
GCUUUUUUAUGCAUUCCAATT against Rock1 | inactive: 0.575
GCCUUCAGGAAAAUCACUATT against Olfr849 | inactive: -1.14
GGACAAGGUUGUGUCUGUGTT against Olfr1508 | inactive: -1.48
GGGAAUCAGAGGCUGGUAATT against Rrnad1 | inactive: 1.78
GAGCUUUGUGCUGAACCUGTT against Lgals1 | inactive: -1.98
GGAAAUAAUGUUACUGACATT against Zfp445 | inactive: -0.178
CGAAACUUACCAGGAGUCGTT against Ttyh2 | active: -2.31
GGUUUGUUGUUGUUUUUGGTT against Vezt | inactive: 0.44
GGGAUUCCUUCAGCUUACCTT against Gng12 | inactive: -0.744
GCUUCAUCGAACAAGUCGCTT against Pcbd1 | inactive: 0.715
GGGAGAAUCGAUCCUUCACTT against Dmac2 | inactive: -0.12
GGCAGAAAGCAGAGCUUCUTT against Igfbp3 | inactive: -1.36
CGUACUGGGCCUAUGUUGATT against Nrarp | inactive: 0.975
CCUUCUGGCCCAGACGAUUTT against Pxmp2 | inactive: -1.39
GCUAUUAUUGCAAUGUCAGTT against Trim38 | inactive: -0.113
GGACAGUGAGGUGAACUUCTT against Enc1 | inactive: -0.268
GGAAAAAAGUCCUUGAGUCTT against Plscr3 | inactive: -1.51
GCCACGGAAAACAGCGAGATT against Gpr65 | inactive: -0.778
GGCCAUUUGCAUGAUUAUUTT against Tas2r108 | inactive: -0.598
UGUCGACUGUCAAGAACUATT against Lyzl6 | inactive: -1.33
GGGUUUUCGGGAGAUCUGUTT against Ltbp4 | inactive: -0.44

Sequence | z-score
GGCCUGAAGGGCAUUUACATT against Slc25a11 | inactive: 1.48
GGCGAAGUAUCUGAUGAGGTT against Plch2 | inactive: -0.405
GCUCAGAUGACAAUUUGCCTT against Gbx2 | inactive: -0.64
GCCAAUACGGGUGAACAAGTT against Sf3b4 | inactive: 0.335
GGGCAUUUCUUCAGCUAAUTT against Tfec | inactive: -1.04
GGUAUCCACUGUGCCAACCTT against Ush2a | inactive: -0.343
CGAGUUUUAUGAAUAAGCUTT against Otud6b | inactive: -0.855
GGUCCUGGACUUCAUGCUATT against Galnt6 | active: 2.75
GGAGACCUCAGCUGAUAUUTT against Tmem109 | inactive: 0.51
CGCAGAAGCUAAUAAACAGTT against Psmb6 | inactive: -0.391
GGAUUAGAGGUUAUGGUAATT against Skint11 | inactive: -0.686
GGUGUGGAUGAGCAAGUACTT against Eif3k | inactive: 1.23
CCUUUACUGUCACAAGCCGTT against Rgl2 | inactive: 0.979
GGCACUUGCUAUCAGCAAGTT against Cdc6 | inactive: -0.999
GGCAUUCUUUCUUCAAUACTT against Ibsp | inactive: 0.261
GGAGAAACAAAAAAGGUGUTT against Srd5a3 | inactive: -0.0317
GGAUGGCUUUAAUAGUACUTT against Zfp106 | inactive: -0.222
GCAAGCACUGAACUUUGUCTT against Fam122a | inactive: -1.76
GCCAGUUCUAGGGUAAUGGTT against Cnr2 | inactive: -1.22
GCGAGACCGUUCAAUAAAGTT against Sergef | inactive: 0.73
GCUAGAAGUCAACAAAUACTT against Timp3 | inactive: 0.801
GGACUACUCCUGGUAGUGATT against Slc46a2 | inactive: -0.326

Sequence | z-score
GGAGAAGGAGGUGAUAAUGTT against Sart1 | inactive: 1.19
CCUCUACAUCAGAGUAUGATT against Defb21 | active: 2.22
UUUCGAUCCUUUGAUUGAGTT against Olfr482 | inactive: 0.0231
CGUCAAUGCUCACUUAAUUTT against Zfp612 | inactive: 0.523
GGAUCUUCGGACCUAUCUGTT against Bin1 | inactive: -0.319
CCAUCAUUGGUGAAUCCCUTT against Gnai1 | inactive: -1.64
GCUCAGUUCUCUGUCUUGUTT against Olfr107 | inactive: 1.21
GGGCUUUGAUGUCAUGAAGTT against Drg2 | inactive: -0.668
GGAAGAAGGAACAUGAUCUTT against Mrpl52 | inactive: -0.928
CCAUGUCAGUUACAAUGCGTT against Gja6 | inactive: 1.54
GGCUCUGAUAUUGAUACUATT against Cse1l | inactive: -0.181
GCCCGUGGUCUAAAUCUAUTT against Igtp | inactive: -0.17
GGAUGUGACUCUUGACCUGTT against Depdc5 | inactive: 0.231
CCUCUUAAUGAAGGAAAGCTT against Npy | inactive: 0.376
GCUUGGAUAUACAGAUUAATT against Skint10 | inactive: 0.851
GGAGAAAGACAUCAGAAAGTT against Rdh16f2 | inactive: 0.942
GCAAAAGACCAUCUGAGUGTT against Adig | inactive: 0.375
GGCAUCCACACAGAACAAGTT against Zfp467 | inactive: -0.287
GGCCUUCACCAAAAGCAUCTT against Ncf2 | inactive: -0.661
